According to PMC9890228 (The EMBO Journal, 2022):
No constants are given. Whether binding was seen depends on the method and setting. Some binding calls cover weakened binding; strength is not graded here.

Chains of the proteins cited; added tags and fusions are not shown.
UniProt Q8TAF3: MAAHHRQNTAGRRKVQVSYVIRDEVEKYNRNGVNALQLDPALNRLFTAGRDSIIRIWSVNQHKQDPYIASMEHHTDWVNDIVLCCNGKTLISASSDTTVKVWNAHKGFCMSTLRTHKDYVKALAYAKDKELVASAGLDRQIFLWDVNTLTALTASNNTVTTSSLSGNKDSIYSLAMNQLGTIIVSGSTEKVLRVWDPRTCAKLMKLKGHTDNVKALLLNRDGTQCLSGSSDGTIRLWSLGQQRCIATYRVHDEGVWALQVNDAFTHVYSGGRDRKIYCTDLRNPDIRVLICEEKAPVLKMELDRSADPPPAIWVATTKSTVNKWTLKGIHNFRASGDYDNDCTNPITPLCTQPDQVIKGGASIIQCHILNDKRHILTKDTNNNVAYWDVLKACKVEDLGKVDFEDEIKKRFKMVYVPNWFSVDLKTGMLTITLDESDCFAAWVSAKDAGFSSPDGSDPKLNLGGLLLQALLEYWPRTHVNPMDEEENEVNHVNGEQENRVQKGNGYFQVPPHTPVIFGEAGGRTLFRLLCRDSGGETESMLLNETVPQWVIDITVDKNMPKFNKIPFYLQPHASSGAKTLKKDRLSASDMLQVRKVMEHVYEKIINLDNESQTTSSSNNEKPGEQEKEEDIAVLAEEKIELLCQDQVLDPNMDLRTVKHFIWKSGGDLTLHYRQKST

Target: T1, USP1 (human) (UniProt O94782)
T1 sequence: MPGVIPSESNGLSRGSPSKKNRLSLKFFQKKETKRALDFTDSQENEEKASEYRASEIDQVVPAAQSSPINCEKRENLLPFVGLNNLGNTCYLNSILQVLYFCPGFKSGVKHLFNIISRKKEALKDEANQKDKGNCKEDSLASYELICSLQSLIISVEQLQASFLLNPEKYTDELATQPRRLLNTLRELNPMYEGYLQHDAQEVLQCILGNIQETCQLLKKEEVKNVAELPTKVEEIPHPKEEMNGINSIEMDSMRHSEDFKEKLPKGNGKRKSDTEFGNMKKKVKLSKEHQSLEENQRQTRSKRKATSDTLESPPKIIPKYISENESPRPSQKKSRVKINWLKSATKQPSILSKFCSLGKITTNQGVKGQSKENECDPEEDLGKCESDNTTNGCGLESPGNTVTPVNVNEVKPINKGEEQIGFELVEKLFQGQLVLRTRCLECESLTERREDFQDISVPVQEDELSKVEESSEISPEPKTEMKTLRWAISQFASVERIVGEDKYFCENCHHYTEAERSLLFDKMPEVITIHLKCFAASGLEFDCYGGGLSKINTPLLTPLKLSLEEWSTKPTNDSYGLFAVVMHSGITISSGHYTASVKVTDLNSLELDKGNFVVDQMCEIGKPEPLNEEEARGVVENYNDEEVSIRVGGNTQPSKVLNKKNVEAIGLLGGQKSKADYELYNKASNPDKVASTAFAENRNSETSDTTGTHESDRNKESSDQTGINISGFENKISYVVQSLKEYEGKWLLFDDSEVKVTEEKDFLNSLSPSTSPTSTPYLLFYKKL
Assay: co-purification; untagged UAF1 co-expressed with N-terminally six-histidine-tagged USP1 in Sf21 insect cells; NiNTA chromatography, anion exchange and gel filtration

UAF1 (untagged) (from UniProt Q8TAF3 1-677)
binding: binds
